Measured values published in PubChem BioAssay AID328 (DTP/NCI, 2004).
The list is a part of this screen's results and no random one: it is rich in T/C values a quarter to a half above the control, in often repeated tests (any T/C) and in doses without a T/C. Further doses and runs are listed elsewhere. T/C: endpoint of the treated group in % of that of the vehicle group. Some entries give survivors of the animals treated and no T/C: the source holds a T/C of zero for them, seemingly a mark for toxic or unscored doses. Some doses without a T/C left all or most animals alive at the check, yet need not have been tolerated: the source hardly ever lists a survival T/C far under the control, and the zero likely stands for such cases as well. Counts of survivors are from the toxicity check (mostly the fifth day) where no day follows; animals may have died later. Schedules are NCI's codes, taken here to give the interval after Q, in days (D) or hours (H), and the number of doses after X. Some molecules as drawn cover several salts, stereoisomers or complexes of the source; a dose is that of the sample tested. For survival time, this PubChem deposit counts one and a half times the control or more as active, and values a quarter to a half above the control carry no call in these data; other NCI protocols may use other cut-offs. Some T/C values carry the count of animals alive at the toxicity check (mostly the fifth day); without a count, all were alive then.

Test system: BDF1 mice, P388 leukemia ip, median survival T/C
Experiment: NCI In Vivo Anticancer Drug Screen. Data for tumor model P388 Leukemia (intraperitoneal) in B6D2F1 (BDF1) mice
Conditions: T/C endpoint: median survival time, higher T/C = longer survival
Method in brief: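 In tumour-bearing mice, survival after compound treatment is set against the vehicle group and given as a quotient.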

[1] = dose: 100.0 mg/kg/injection, schedule: Q01DX009 (ip), vehicle: saline with Tween-80
[2] = dose: 100.0 mg/kg/injection, schedule: Q01DX009 (ip), vehicle: saline
[3] = dose: 200.0 mg/kg/injection, schedule: Q01DX009 (ip), vehicle: saline with Tween-80
[4] = dose: 200.0 mg/kg/injection, schedule: Q01DX009 (ip), vehicle: saline
[5] = dose: 400.0 mg/kg/injection, schedule: Q01DX009 (ip), vehicle: saline with Tween-80
[6] = dose: 400.0 mg/kg/injection, schedule: Q01DX009 (ip), vehicle: Klucel (hydroxypropylcellulose) (HPC)
[7] = dose: 20.0 mg/kg/injection, schedule: Q01DX009 (ip), vehicle: saline
[8] = dose: 40.0 mg/kg/injection, schedule: Q04DX003 (ip), vehicle: saline
[9] = dose: 200.0 mg/kg/injection, schedule: Q04DX003 (ip), vehicle: saline
[10] = dose: 10.0 mg/kg/injection, schedule: Q01DX009 (ip), vehicle: saline

Which T/C (dose: 50.0 mg/kg/injection, schedule: Q01DX009 (ip), vehicle: saline with Tween-80) does the source give for `ClCC[N+]12CC[N+](CCCl)(CC1)C2` here?
Its T/C is 140 % of control.

What about the T/C [1] of the same compound?
Its T/C is 147 % of control.

What about the T/C [2] of the same compound?
Its T/C is 126 % of control.

And the T/C (dose: 100.0 mg/kg/injection, schedule: Q04DX003 (ip), vehicle: saline with Tween-80)?
The T/C was 133 % of control.

And the survivor count [3]?
Its survivor count is 5 of 6.

And the T/C [4]?
The T/C was 144 % of control.

What about the survivor count (dose: 200.0 mg/kg/injection, schedule: Q04DX003 (ip), vehicle: saline with Tween-80) of the same compound?
The survivor count was 2 of 6.

What about the survivor count [5] of the same compound?
Its survivor count is 2 of 6.

And the T/C (dose: 400.0 mg/kg/injection, schedule: Q04DX003 (ip), vehicle: saline with Tween-80)?
Its T/C is 141 % of control.

For `CC(=O)OC(C(=O)N(c1ccccc1)c1ccccc1)c1ccccc1` (centres undefined), which survivor count [3] is on record?
The survivor count was 5 of 6.

Which survivor count [1] does the source give for `Cc1ccc(NC(=O)Oc2c(C)cc(Cl)cc2C)c([N+](=O)[O-])c1` here?
The survivor count was 6 of 6.

How did the T/C (dose: 100.0 mg/kg/injection, schedule: Q01DX009 (ip), vehicle: Klucel (hydroxypropylcellulose) (HPC)) turn out when `CCCCn1cnc2c(SC)nc(N)nc21` was run?
Its T/C is 125 % of control.

What about the survivor count (dose: 200.0 mg/kg/injection, schedule: Q01DX009 (ip), vehicle: Klucel (hydroxypropylcellulose) (HPC)) of the same compound?
Its survivor count is 3 of 6.

And the survivor count [6]?
Its survivor count is 0 of 6.

`CC1CCCC/C1=N/NC(N)=O` (centres undefined) was tested. Which survivor count [6] did it give?
The survivor count was 4 of 6.

With `OCCN1CCN(CC/C=C2/c3ccccc3Sc3ccc(C(F)(F)F)cc32)CC1` as the compound, how does the T/C (dose: 10.0 mg/kg/injection, schedule: Q04DX003 (ip), vehicle: saline) read?
Its T/C is 125 % of control.

What about the survivor count [7] of the same compound?
The survivor count was 6 of 6.

What about the T/C (dose: 20.0 mg/kg/injection, schedule: Q04DX003 (ip), vehicle: saline) of the same compound?
The T/C was 134 % of control.

And the survivor count (dose: 40.0 mg/kg/injection, schedule: Q01DX009 (ip), vehicle: saline)?
Its survivor count is 3 of 6.

What about the T/C [8] of the same compound?
Its T/C is 145 % of control.

`FCc1nc2nc(Cl)c(Cl)nc2[nH]1` was tested. Which survivor count (dose: 8.0 mg/kg/injection, schedule: Q01DX009 (ip), vehicle: saline) did it give?
Its survivor count is 6 of 6.

What about the survivor count (dose: 16.0 mg/kg/injection, schedule: Q01DX009 (ip), vehicle: saline) of the same compound?
The survivor count was 2 of 6.

What about the survivor count [9] of the same compound?
The survivor count was 0 of 6.

And the survivor count (dose: 400.0 mg/kg/injection, schedule: Q04DX003 (ip), vehicle: saline)?
The survivor count was 0 of 6.

Which results are given for `O=CC(OC(=O)c1ccccc1)C(OC(=O)c1ccccc1)C(COC(c1ccccc1)(c1ccccc1)c1ccccc1)OC(=O)c1ccccc1` (centres undefined)?
T/C [1]: 125 % of control; survivor count [5]: 1 of 3

For `CCOC(=O)c1[nH]cnc1/N=N/N(C)CCO`, which T/C (dose: 33.0 mg/kg/injection, schedule: Q01DX009 (ip), vehicle: saline) is on record?
Its T/C is 135 % of control.

What about the survivor count (dose: 132.0 mg/kg/injection, schedule: Q01DX009 (ip), vehicle: saline) of the same compound?
The survivor count was 6 of 6.

What about the T/C (dose: 264.0 mg/kg/injection, schedule: Q01DX009 (ip), vehicle: saline) of the same compound?
Its T/C is 131 % of control.

And the T/C [5]?
The T/C was 136 % of control.

What about the T/C (dose: 400.0 mg/kg/injection, schedule: Q01DX009 (ip), vehicle: saline) of the same compound?
The T/C was 145 % of control.

`COc1cc(C(C2=C(O)c3ccccc3C(=O)C2=O)C2=C(O)c3ccccc3C(=O)C2=O)cc(Br)c1O` was tested. Which T/C (dose: 50.0 mg/kg/injection, schedule: Q01DX001 (ip), vehicle: saline) did it give?
Its T/C is 142 % of control.

Which survivor count (dose: 6.0 mg/kg/injection, schedule: Q04DX003 (ip), vehicle: saline) does the source give for `CNCC(=O)NC(CO)C(=O)NC1C(C(N)=O)OC(n2ccc(N)nc2=O)C(O)C1O` (centres undefined) here?
The survivor count was 3 of 8.

And the survivor count (dose: 12.0 mg/kg/injection, schedule: Q04DX003 (ip), vehicle: saline)?
The survivor count was 4 of 8.

How did the T/C [10] turn out when `COc1cc2cc3c4ccc(OC)c(OC)c4cc[n+]3c(C)c2cc1OC` (tested in a mixture with another compound) was run?
The T/C was 149 % of control.

What about the T/C [7] of the same compound?
Its T/C is 141 % of control.

And the survivor count [4]?
The survivor count was 4 of 6.

What about the survivor count (dose: 240.0 mg/kg/injection, schedule: Q01DX009 (ip), vehicle: saline) of the same compound?
The survivor count was 6 of 6.

`CN=C(C)c1ccc(N(C)C)cc1` was tested. Which T/C (dose: 50.0 mg/kg/injection, schedule: Q04DX003 (ip), vehicle: Klucel (hydroxypropylcellulose) (HPC)) did it give?
Its T/C is 129 % of control.

And the T/C (dose: 100.0 mg/kg/injection, schedule: Q04DX003 (ip), vehicle: Klucel (hydroxypropylcellulose) (HPC))?
The T/C was 145 % of control.

And the T/C (dose: 200.0 mg/kg/injection, schedule: Q04DX003 (ip), vehicle: Klucel (hydroxypropylcellulose) (HPC))?
Its T/C is 142 % of control [4 of 6 alive].

And the survivor count (dose: 400.0 mg/kg/injection, schedule: Q04DX003 (ip), vehicle: Klucel (hydroxypropylcellulose) (HPC))?
Its survivor count is 0 of 6.

For `Nc1ccccc1.[C-]#[O+].[C-]#[O+].[C-]#[O+].[C-]#[O+].[C-]#[O+].[Cr]`, which survivor count [10] is on record?
The survivor count was 0 of 6.

And the survivor count [7]?
Its survivor count is 0 of 6.

What does the source list for `CO[C@H]1Nc2c(ccc(C)c2O)C(=O)N2C=C(/C=C/C(N)=O)C[C@@H]12`?
T/C (dose: 0.03 mg/kg/injection, schedule: Q01DX009 (ip), vehicle: saline with Tween-80): 131 % of control [5 of 6 alive]; T/C (dose: 0.06 mg/kg/injection, schedule: Q01DX009 (ip), vehicle: saline with Tween-80): 131 % of control; survivor count (dose: 0.12 mg/kg/injection, schedule: Q01DX009 (ip), vehicle: Klucel (hydroxypropylcellulose) (HPC)): 2 of 6; T/C (dose: 0.12 mg/kg/injection, schedule: Q01DX009 (ip), vehicle: saline): 141 % of control [5 of 6 alive]; T/C (dose: 0.18 mg/kg/injection, schedule: Q01DX009 (ip), vehicle: saline): 145 % of control; survivor count (dose: 0.5 mg/kg/injection, schedule: Q01DX010 (ip), vehicle: saline): 6 of 6; survivor count (dose: 1.0 mg/kg/injection, schedule: Q01DX010 (ip), vehicle: saline): 6 of 6; survivor count (dose: 2.0 mg/kg/injection, schedule: Q01DX010 (ip), vehicle: saline): 6 of 6; survivor count (dose: 700.0 micrograms/kg/injection, schedule: Q04DX003 (ip), vehicle: saline + alcohol): 6 of 8; survivor count (dose: 1000.0 micrograms/kg/injection, schedule: Q04DX003 (ip), vehicle: saline + alcohol): 2 of 8

How did the survivor count (dose: 200.0 mg/kg/injection, schedule: Q01DX009 (ip), vehicle: other) turn out when `CC(=O)OCC(=O)[C@@]1(O)CC[C@H]2[C@@H]3C[C@H](F)C4=CC(=O)CC[C@]4(C)[C@H]3C(=O)C[C@@]21C` was run?
The survivor count was 6 of 6.

What about the survivor count (dose: 400.0 mg/kg/injection, schedule: Q01DX009 (ip), vehicle: other) of the same compound?
Its survivor count is 6 of 6.

`CC1([CH2][Hg][I])COCC([CH2][Hg][I])O1` (centres undefined) was tested. Which survivor count (dose: 23.0 mg/kg/injection, schedule: Q01DX009 (ip), vehicle: saline) did it give?
The survivor count was 0 of 6.

What about the survivor count [8] of the same compound?
Its survivor count is 3 of 6.

How did the survivor count [6] turn out when `C[C@H]1CC2=CC(=O)CC[C@]2(C)[C@H]2CC[C@@]3(C)[C@@H](CC[C@]3(C)O)[C@H]12` was run?
Its survivor count is 5 of 6.

How did the survivor count [2] turn out when `CC[n+]1ccc2cc(OC)c(OC)cc2c1Cc1ccc(OC)c(OC)c1` was run?
Its survivor count is 0 of 6.

What about the survivor count [9] of the same compound?
The survivor count was 0 of 6.

How did the survivor count (dose: 200.0 mg/kg/injection, schedule: Q01DX001 (ip), vehicle: saline with Tween-80) turn out when `O=C(O)c1ccccc1Nc1ccc(Br)cc1` was run?
The survivor count was 2 of 6.

`O=C(Nc1cc(Cl)ccc1C(=O)O)c1cccc(C[n+]2ccccc2)c1` was tested. Which survivor count (dose: 200.0 mg/kg/injection, schedule: Q01DX005 (ip), vehicle: saline with Tween-80) did it give?
The survivor count was 4 of 5.

For `CC(C)CSc1ncnc2nc[nH]c12`, which survivor count [3] is on record?
Its survivor count is 4 of 6.

What about the survivor count [5] of the same compound?
The survivor count was 3 of 6.

For `COc1cc(NC(=O)N(CCCl)N=O)cc(OC)c1OC`, which T/C (dose: 1.32 mg/kg/injection, schedule: Q04DX003 (ip), vehicle: saline + alcohol) is on record?
The T/C was 133 % of control.

And the T/C (dose: 2.0 mg/kg/injection, schedule: Q04DX003 (ip), vehicle: saline + alcohol)?
Its T/C is 138 % of control.

What about the T/C (dose: 12.5 mg/kg/injection, schedule: Q01DX009 (ip), vehicle: saline + alcohol) of the same compound?
Its T/C is 146 % of control.

And the survivor count (dose: 50.0 mg/kg/injection, schedule: Q01DX009 (ip), vehicle: saline + alcohol)?
The survivor count was 6 of 6.

How did the survivor count (dose: 12.5 mg/kg/injection, schedule: Q01DX009 (ip), vehicle: saline with Tween-80) turn out when `CCC(C)(CC(=O)O)CC(=O)O` was run?
The survivor count was 6 of 6.

And the survivor count [1]?
The survivor count was 6 of 6.

And the survivor count [3]?
The survivor count was 6 of 6.

And the survivor count [5]?
Its survivor count is 6 of 6.

How did the T/C (dose: 3.0 mg/kg/injection, schedule: Q01DX009 (ip), vehicle: saline) turn out when `COc1cccc2c1C(=O)c1c(O)c3c(c(O)c1C2=O)C[C@@](O)(C(=O)COC(=O)Cc1ccccc1)C[C@@H]3OC1CC(N)C(O)C(C)O1` (some centres undefined) was run?
Its T/C is 145 % of control.
